PubChem BioAssay AID1259424 – University of Nebraska Medical Center | 2018

Test: 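Rank knockdowns across the genome by resemblance to the KSR1 depletion profile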 (primary screen)
Cells: human HCT116 colon cancer cells
Knock-down reagent: siRNA pool against human genes, 50 nM
Measured: 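Six signature mRNAs by branched-DNA multiplex assay, scaled to two housekeeping genes and non-targeting median, log2; matched to mean KSR1 knockdown profile by Pearson correlation and euclidean distance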
Direction: mean correlation with KSR1 profile and KSR1 correlation: higher = expression change more like KSR1 knockdown; mean distance from KSR1 profile: higher = expression change less like KSR1 knockdown
This is one part, drawn at random, of about 14,000 reagents tested. 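Higher correlation or smaller distance means closer resemblance to KSR1 loss; control wells, including KSR1 knockdowns, recur on many plates.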 Not given: the time to read-out.

Gene | mean correlation with KSR1 profile | mean distance from KSR1 profile | KSR1 correlation, replicate 1 | KSR1 correlation, replicate 2 | KSR1 correlation, replicate 3
NR2E1 | -0.378 | 1.73 | -0.446 | -0.315 | -0.212
PPCS | 0.379 | 2.25 | 0.363 | 0.566 | 0.164
SRSF5 | -0.163 | 1.33 | -0.228 | 0.0813 | -0.157
ACTG2 | -0.166 | 2.25 | -0.0757 | -0.225 | -0.167
WDR83 | 0.516 | 2.01 | 0.451 | 0.209 | 0.473
PAK4 | -0.0698 | 2.57 | 0.0534 | -0.165 | -0.14
POLR3GL | 0.724 | 1.1 | 0.624 | 0.638 | 0.723
GRAP2 | -0.192 | 1.5 | -0.306 | -0.192 | -0.0479
MST1R | 0.0495 | 3.12 | 0.0506 | 0.0136 | 0.124
PDZD4 | -0.0534 | 1.71 | 0.0255 | -0.197 | -0.12
PHF12 | 0.0746 | 2.89 | -0.0213 | -0.166 | 0.346
PRAME | -0.541 | 2.84 | -0.648 | -0.564 | -0.584
MRPL16 | -0.653 | 6.47 | -0.666 | -0.758 | -0.399
UBQLN4 | -0.12 | 3.61 | -0.0594 | -0.314 | -0.245
CTSE | 0.38 | 2.38 | 0.409 | 0.199 | 0.604
PIR | -0.269 | 1.64 | 0.000442 | 0.152 | -0.123
PITX3 | 0.218 | 1.85 | 0.0499 | 0.608 | 0.173
PDE9A | 0.107 | 1.37 | 0.133 | 0.0956 | -0.0855
PARP10 | 0.419 | 1.84 | 0.0278 | 0.609 | 0.403
PHYH | 0.195 | 2.7 | 0.0139 | 0.524 | -0.108
A4GALT | 0.446 | 3.17 | 0.222 | 0.292 | 0.389
CENPK | -0.431 | 2.68 | -0.348 | -0.463 | -0.363
PHKB | -0.0648 | 1.82 | -0.12 | -0.0499 | -0.0924
SOCS2 | 0.22 | 1.51 | 0.396 | 0.0489 | 0.0194
CD7 | -0.361 | 4.34 | -0.319 | -0.335 | -0.561
SDK2 | 0.446 | 1.06 | 0.426 | 0.474 | 0.457
HRH2 | 0.233 | 2.6 | 0.185 | 0.285 | 0.204
SLC6A8 | 0.224 | 0.912 | 0.506 | -0.0476 | 0.454
VEGFB | 0.132 | 3.3 | 0.238 | 0.121 | -0.0121
NSF | -0.298 | 2.82 | -0.1 | -0.231 | -0.418
ABHD6 | 0.719 | 0.882 | 0.53 | 0.659 | 0.553
BRAP | -0.366 | 1.3 | -0.22 | -0.34 | -0.635

7 entries from above, ordered by “KSR1 correlation, replicate 3”, high to low:
Gene | mean correlation with KSR1 profile | mean distance from KSR1 profile | KSR1 correlation, replicate 1 | KSR1 correlation, replicate 2 | KSR1 correlation, replicate 3
POLR3GL | 0.724 | 1.1 | 0.624 | 0.638 | 0.723
WDR83 | 0.516 | 2.01 | 0.451 | 0.209 | 0.473
PPCS | 0.379 | 2.25 | 0.363 | 0.566 | 0.164
GRAP2 | -0.192 | 1.5 | -0.306 | -0.192 | -0.0479
PAK4 | -0.0698 | 2.57 | 0.0534 | -0.165 | -0.14
SRSF5 | -0.163 | 1.33 | -0.228 | 0.0813 | -0.157
ACTG2 | -0.166 | 2.25 | -0.0757 | -0.225 | -0.167

Additional entries follow:
Gene | mean correlation with KSR1 profile | mean distance from KSR1 profile | KSR1 correlation, replicate 1 | KSR1 correlation, replicate 2 | KSR1 correlation, replicate 3
DUSP15 | 0.353 | 1.06 | 0.272 | 0.314 | 0.441
FDFT1 | -0.246 | 3.79 | -0.23 | -0.256 | -0.289
SCCPDH | -0.116 | 1.27 | -0.28 | 0.0786 | -0.0502
MYLIP | 0.296 | 1.71 | -0.229 | 0.186 | -0.144
PSME1 | -0.57 | 1.46 | -0.544 | -0.545 | -0.526
FZR1 | -0.407 | 2.86 | -0.555 | -0.307 | -0.355
SPIC | 0.789 | 1.54 | 0.902 | 0.482 | 0.811
FHOD3 | 0.703 | 1.38 | 0.463 | 0.737 | 0.627
ESM1 | 0.18 | 1.05 | 0.18 | 0.321 | 0.232
DENND4C | -0.212 | 1.65 | -0.383 | -0.152 | -0.124
SLC16A1 | -0.826 | 1.82 | -0.806 | -0.783 | -0.743
SLC35F2 | 0.748 | 3.79 | 0.722 | 0.921 | 0.545
B3GALNT2 | -0.321 | 2.36 | -0.418 | -0.286 | -0.287
MAEL | 0.542 | 1.23 | 0.479 | 0.49 | 0.337
HAGHL | -0.149 | 1.48 | -0.331 | -0.31 | -0.177
EFNB2 | 0.277 | 2.21 | 0.07 | 0.299 | 0.42
PWP1 | -0.758 | 2.98 | -0.627 | -0.789 | -0.689
SAMD9 | -0.303 | 2.45 | -0.375 | -0.336 | -0.398
